# Source: patent publication US20150017665A1, “Peptides and Methods for Detecting MPO-ANCA” (The University of North Carolina at Chapel Hill, priority 2012, published 2015)
# System: MPO-ANCA
# Assay: Linear versus conformational epitopes: epitope excision MS with pre-digested MPO
# Format: binding, human
# [1] = loss of reactivity with pre-digested MPO = conformational, Table 1
substance,measurement,setting,value
YQPMEPNPR (listed as Homo sapiens) [aa516-524],Epitope Structure,Table 6,Linear
same,Epitope Structure,[1],Linear
FQDNGR (listed as Homo sapiens) [aa369-374],Epitope Structure,Table 6,Conformational
same,Epitope Structure,[1],Conformational
LYQEAR (listed as Homo sapiens) [aa442-447],Epitope Structure,Table 6,Conformational
same,Epitope Structure,[1],Conformational
KYLPTYR (listed as Homo sapiens) [aa474-480],Epitope Structure,Table 6,Conformational
same,Epitope Structure,[1],Conformational
IGLDLPALNMQR (listed as Homo sapiens) [aa579-590],Epitope Structure,Table 6,Linear
same,Epitope Structure,[1],Linear
VFFASWR (listed as Homo sapiens) [aa530-536],Epitope Structure,Table 6,Linear
same,Epitope Structure,[1],Linear
VVLEGGIDPILR (listed as Homo sapiens) [aa537-548],Epitope Structure,Table 6,Conformational
same,Epitope Structure,[1],Conformational
NGFPVALAR (listed as Homo sapiens) [aa220-228],Epitope Structure,Table 6,Conformational
same,Epitope Structure,[1],Conformational
NQINALTSFVDASMV (listed as Homo sapiens) [aa328-351],Epitope Structure,Table 6,Conformational
same,Epitope Structure,[1],Conformational
FPTDQLTPDQER (listed as Homo sapiens) [aa237-248],Epitope Structure,Table 6,Linear
same,Epitope Structure,[1],Linear
RSPTLGASNR (listed as Homo sapiens) [aa184-193],Epitope Structure,Table 6,Conformational
same,Epitope Structure,[1],Conformational
LFEQVMR (listed as Homo sapiens) [aa572-578],Epitope Structure,Table 6,Conformational
same,Epitope Structure,[1],Conformational
WLPAEYEDGFSLPYG (listed as Homo sapiens) [aa198-219],Epitope Structure,Table 6,Conformational
same,Epitope Structure,[1],Conformational
FCGLPQPETVGQLGT (listed as Homo sapiens) [aa605-622],Epitope Structure,Table 6,Conformational
same,Epitope Structure,[1],Conformational
IANVFTNAFR (listed as Homo sapiens) [aa490-499],Epitope Structure,Table 6,Conformational
same,Epitope Structure,[1],Conformational
NNIFMSNTYPR (listed as Homo sapiens) [aa715-725],Epitope Structure,Table 6,Conformational
same,Epitope Structure,[1],Conformational
IPCFLAGDTR (listed as Homo sapiens) [aa396-405],Epitope Structure,Table 6,Conformational
same,Epitope Structure,[1],Conformational
QALAQISLPR (listed as Homo sapiens) [aa692-701],Epitope Structure,Table 6,Conformational
same,Epitope Structure,[1],Conformational
WDGER (listed as Homo sapiens) [aa437-441],Epitope Structure,Table 6,Conformational
same,Epitope Structure,[1],Conformational
VGPLLACI (listed as Homo sapiens) [aa657-664],Epitope Structure,Table 6,Conformational
same,Epitope Structure,[1],Conformational
QNQIAVDEIR (listed as Homo sapiens) [aa560-571],Epitope Structure,Table 6,Conformational
same,Epitope Structure,[1],Conformational
DHGLPGYNAWR (listed as Homo sapiens) [aa593-603],Epitope Structure,Table 6,Conformational
same,Epitope Structure,[1],Conformational
RKIVGAMVQIITY (listed as Homo sapiens) [aa447-459],Epitope Structure,Table 6,Linear
same,Epitope Structure,[1],Linear
RDYLPLVLGPTAMR (listed as Homo sapiens) [aa460-473],Epitope Structure,Table 6,Conformational
same,Epitope Structure,[1],Conformational
FWWENEGVFSMQQR (listed as Homo sapiens) [aa678-691],Epitope Structure,Table 6,Conformational
same,Epitope Structure,[1],Conformational
